No constants are given. Whether binding was seen depends on the method and setting. Some binding calls cover weakened binding; strength is not graded here.
Tests used:
[1] = biological target: TRAP deposited by previous osteoclast activity on human cortical bone wafers (human) (UniProt P13686); test: confocal imaging of fluorescent peptide on cortical bone wafers
[2] = biological target: TRAP deposited by previous osteoclast activity on human cortical bone wafers (human) (UniProt P13686); test: confocal imaging of fluorescent peptide on human cortical bone wafers

Sequences of proteins named here, by UniProt entry; tags and fusion partners are left off. Residues count along the entry.
UniProt P13686, residues 22-325: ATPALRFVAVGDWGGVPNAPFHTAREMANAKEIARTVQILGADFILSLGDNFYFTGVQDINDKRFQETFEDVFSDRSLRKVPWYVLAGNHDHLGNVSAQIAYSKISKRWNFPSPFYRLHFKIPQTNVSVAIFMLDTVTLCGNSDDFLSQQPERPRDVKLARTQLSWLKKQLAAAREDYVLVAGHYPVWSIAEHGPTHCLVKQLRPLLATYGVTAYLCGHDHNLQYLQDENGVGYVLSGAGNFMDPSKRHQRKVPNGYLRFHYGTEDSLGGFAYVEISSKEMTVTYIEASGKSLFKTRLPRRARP

binding [1]: binds
binding [2]: binds
Binder: TPLSYLKGLVTVG (fluorescent cadaverine coupled with NHS/DCC (site not stated)) [fluorescently labeled TRAP-binding peptide (TBP)]
